Measurements as given in PubChem BioAssay AID248 (DTP/NCI, 2004).
The list does not hold the whole screen: it gathers tests that were run many times, whatever their T/C, doses with no T/C, and many T/C values between a quarter and a half above the control. Further doses and runs are listed elsewhere. T/C gives the treated animals as a percentage of the vehicle group. Some entries give survivors of the animals treated and no T/C: the source holds a T/C of zero for them, seemingly a mark for toxic or unscored doses. Some doses without a T/C left all or most animals alive at the check, yet need not have been tolerated: survival well below the control is almost never listed, so the zero probably covers shortened survival too. Survivors were counted at the toxicity check, usually on the fifth day, unless a day is given; later deaths do not show. Schedules are NCI's codes, taken here to give the interval after Q, in days (D) or hours (H), and the number of doses after X. Some schedule codes hold Z or #, which are not explained here. For survival time, the PubChem record calls one and a half times the control and up active, and a quarter to a half above the control has no call in these data; cut-offs in other NCI protocols can differ. Some T/C values are followed by the survivors on the day toxicity was checked, most often the fifth; without a count, all were alive then.

System: L1210 leukemia ip in BDF1 mice, survival T/C
Experiment: NCI In Vivo Anticancer Drug Screen. Data for tumor model L1210 Leukemia (intraperitoneal) in B6D2F1 (BDF1) mice
Details: T/C endpoint: mean survival time, higher T/C = longer survival
[1] = dose: 400.0 mg/kg/injection, schedule: Q04DX003 (ip), vehicle: saline with Tween-80
[2] = dose: 200.0 mg/kg/injection, schedule: Q04DX002 (ip), vehicle: Klucel (hydroxypropylcellulose) (HPC)
[3] = dose: 100.0 mg/kg/injection, schedule: Q01DX009 (ip), vehicle: Klucel (hydroxypropylcellulose) (HPC)
[4] = dose: 200.0 mg/kg/injection, schedule: Q01DX009 (ip), vehicle: Klucel (hydroxypropylcellulose) (HPC)
[5] = dose: 400.0 mg/kg/injection, schedule: Q01DX001 (ip), vehicle: saline

OC1CNCCc2ccccc21 (stereo not drawn)
survivor count (dose: 400.0 mg/kg/injection, schedule: Q04DX003 (ip), vehicle: Klucel (hydroxypropylcellulose) (HPC)): 1 of 6

CN(C)CCN(Cc1ccc(Cl)cc1)c1ccccn1
survivor count (dose: 50.0 mg/kg/injection, schedule: Q01DX009 (ip), vehicle: saline): 0 of 3
survivor count (dose: 100.0 mg/kg/injection, schedule: Q01DX009 (ip), vehicle: saline): 0 of 3
survivor count (dose: 200.0 mg/kg/injection, schedule: Q01DX009 (ip), vehicle: saline): 0 of 3

Nc1nc(Cl)nc2c1ncn2Cc1ccccc1
survivor count (dose: 150.0 mg/kg/injection, schedule: Q01DX001 (ip), vehicle: other): 1 of 6
survivor count (dose: 300.0 mg/kg/injection, schedule: Q01DX001 (ip), vehicle: other): 0 of 6

O=C(C(=Nc1ccccc1)c1ccccc1)c1ccccc1
survivor count [1]: 6 of 6

COc1ccc2c(=O)cc(-c3ccccc3)[nH]c2c1
survivor count (dose: 400.0 mg/kg/injection, schedule: Q01DX009 (ip), vehicle: other): 5 of 6

O=C(Nc1cccnc1)c1cccc([N+](=O)[O-])c1
T/C (dose: 100.0 mg/kg/injection, schedule: Q04DX002 (ip), vehicle: Klucel (hydroxypropylcellulose) (HPC)): 125 % of control [2 of 3 alive]

O=C(O)c1ccc(N=NNc2ccccc2)cc1
survivor count (dose: 100.0 mg/kg/injection, schedule: Q01DX001 (ip), vehicle: saline with Tween-80): 1 of 3
survivor count (dose: 200.0 mg/kg/injection, schedule: Q01DX001 (ip), vehicle: saline with Tween-80): 1 of 3
survivor count (dose: 400.0 mg/kg/injection, schedule: Q01DX001 (ip), vehicle: saline with Tween-80): 0 of 3

CC(C)c1ccc2c(c1)CCC1C2CCCC1(C)NCc1ccccc1 (stereo not drawn)
survivor count (dose: 83.0 mg/kg/injection, schedule: Q01DX Z (ip), vehicle: methylcellulose (MC)): 3 of 6
survivor count (dose: 125.0 mg/kg/injection, schedule: Q01DX Z (ip), vehicle: methylcellulose (MC)): 1 of 6
survivor count (dose: 187.0 mg/kg/injection, schedule: Q01DX Z (ip), vehicle: methylcellulose (MC)): 0 of 6

CCn1c2ccccc2c2cc3c(cc21)C(C)=NCC3
survivor count [2]: 1 of 3
survivor count (dose: 400.0 mg/kg/injection, schedule: Q04DX002 (ip), vehicle: Klucel (hydroxypropylcellulose) (HPC)): 0 of 3

Clc1c(C(Cl)(Cl)Cl)nc2ccccc2c1Br
survivor count (dose: 50.0 mg/kg/injection, schedule: Q01DX009 (ip), vehicle: Klucel (hydroxypropylcellulose) (HPC)): 3 of 3
survivor count [3]: 1 of 3
survivor count [4]: 1 of 3

COC(=O)c1c(Cl)c(Cl)c(Cl)c(Cl)c1C(=O)OC
survivor count (dose: 400.0 mg/kg/injection, schedule: Q01DX009 (ip), vehicle: saline with Tween-80): 3 of 6
survivor count [1]: 2 of 6

CC(C)=CCCC/C=N/NC(N)=O
survivor count (dose: 300.0 mg/kg/injection, schedule: Q01DX001 (ip), vehicle: acetone): 0 of 6

c1ccc2occc2c1
survivor count (dose: 200.0 mg/kg/injection, schedule: Q01DX001 (ip), vehicle: saline): 1 of 4
survivor count [5]: 0 of 4

O=C(NCCBr)Nc1ccc([N+](=O)[O-])cc1
survivor count (dose: 200.0 mg/kg/injection, schedule: Q01DX009 (ip), vehicle: saline with Tween-80): 3 of 3

O=c1c(O)c(-c2ccc(O)c(O)c2)oc2cc(O)cc(O)c12
survivor count (dose: 400.0 mg/kg/injection, schedule: Q01DX009 (ip), vehicle: saline): 1 of 6
survivor count (dose: 800.0 mg/kg/injection, schedule: Q01DX009 (ip), vehicle: saline): 4 of 6
survivor count (dose: 1600.0 mg/kg/injection, schedule: Q01DX009 (ip), vehicle: saline): 0 of 6

CCCN(CCC)CCCCCO
survivor count [1]: 3 of 6

CC(=O)[O][Hg][c]1cc2c(cc1O)Cc1cc([N+](=O)[O-])ccc1-2
survivor count (dose: 100.0 mg/kg/injection, schedule: Q01DX001 (ip), vehicle: carboxymethylcellulose (CMC)): 0 of 4
survivor count (dose: 200.0 mg/kg/injection, schedule: Q01DX001 (ip), vehicle: carboxymethylcellulose (CMC)): 0 of 4
survivor count (dose: 400.0 mg/kg/injection, schedule: Q01DX001 (ip), vehicle: carboxymethylcellulose (CMC)): 0 of 4

c1ccc(-c2nc3cnccc3o2)cc1
survivor count [3]: 1 of 6
survivor count [4]: 0 of 6
survivor count (dose: 400.0 mg/kg/injection, schedule: Q01DX009 (ip), vehicle: Klucel (hydroxypropylcellulose) (HPC)): 0 of 6

CC(C)(F)C(Br)C(=O)O (stereo not drawn)
survivor count (dose: 100.0 mg/kg/injection, schedule: Q04DX002 (ip), vehicle: saline with Tween-80): 3 of 3
survivor count (dose: 400.0 mg/kg/injection, schedule: Q04DX002 (ip), vehicle: saline with Tween-80): 3 of 3

CCCNC(c1ccccc1)=[N+]1CCCCC1
survivor count (dose: 50.0 mg/kg/injection, schedule: Q04DX002 (ip), vehicle: saline): 0 of 3
survivor count (dose: 100.0 mg/kg/injection, schedule: Q04DX002 (ip), vehicle: saline): 0 of 3
survivor count (dose: 200.0 mg/kg/injection, schedule: Q04DX002 (ip), vehicle: saline): 0 of 3
survivor count (dose: 400.0 mg/kg/injection, schedule: Q04DX002 (ip), vehicle: saline): 0 of 3

CCCCN(C)/N=N/c1nn[nH]n1
survivor count [2]: 3 of 3

CCOCC[n+]1ccc(C)cc1
survivor count (dose: 400.0 mg/kg/injection, schedule: Q04DX003 (ip), vehicle: saline): 2 of 6

CS(=O)(=O)OCCN(CCOS(C)(=O)=O)c1ccc(C=Nc2ccc3oc(=O)ccc3c2)cc1
T/C (dose: 3.0 mg/kg/injection, schedule: Q01DX015 (ip), vehicle: carboxymethylcellulose (CMC)): 130 % of control
T/C (dose: 6.0 mg/kg/injection, schedule: Q01DX015 (ip), vehicle: carboxymethylcellulose (CMC)): 140 % of control
T/C (dose: 12.0 mg/kg/injection, schedule: Q01DX015 (ip), vehicle: carboxymethylcellulose (CMC)): 136 % of control
T/C (dose: 24.0 mg/kg/injection, schedule: Q01DX015 (ip), vehicle: carboxymethylcellulose (CMC)): 148 % of control

CCOC(=O)OC1CC/C(=N\NC(N)=S)C1 (stereo not drawn)
survivor count (dose: 250.0 mg/kg/injection, schedule: Q01DX Z (ip), vehicle: methylcellulose (MC)): 6 of 6
survivor count (dose: 500.0 mg/kg/injection, schedule: Q01DX Z (ip), vehicle: methylcellulose (MC)): 6 of 6
survivor count (dose: 750.0 mg/kg/injection, schedule: Q01DX Z (ip), vehicle: methylcellulose (MC)): 6 of 6

Cc1ccc2c(c1)N(CCCN(C)C)c1ccccc1S2
T/C (dose: 50.0 mg/kg/injection, schedule: Q04DX003 (ip), vehicle: saline): 135 % of control [4 of 6 alive]

Cc1cc(NS(=O)(=O)c2ccc(N=Nc3c(N)[nH]c(=S)[nH]c3=O)cc2)nc(C)n1
survivor count [5]: 2 of 6
